Results reported in the supplement of paper PMC12067093, “Discovery and optimisation of a covalent ligand for TRIM25 and its application to targeted protein ubiquitination” (Chemical Science, 2025).
The other results are listed elsewhere or left out.

By UniProt entry, the sequences of proteins in these tests, tags left out. Where a name states a change or a piece, a line headed by the entry shows the natural chain unless it says otherwise.
UniProt O75586: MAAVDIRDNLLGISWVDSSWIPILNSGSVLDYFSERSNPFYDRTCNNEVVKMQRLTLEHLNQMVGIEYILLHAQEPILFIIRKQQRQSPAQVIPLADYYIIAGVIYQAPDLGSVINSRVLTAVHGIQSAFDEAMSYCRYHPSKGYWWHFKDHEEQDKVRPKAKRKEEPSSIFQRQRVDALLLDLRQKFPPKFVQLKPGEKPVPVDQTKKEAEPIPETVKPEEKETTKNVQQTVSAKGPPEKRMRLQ
UniProt Q86U44, whole entry, looked up: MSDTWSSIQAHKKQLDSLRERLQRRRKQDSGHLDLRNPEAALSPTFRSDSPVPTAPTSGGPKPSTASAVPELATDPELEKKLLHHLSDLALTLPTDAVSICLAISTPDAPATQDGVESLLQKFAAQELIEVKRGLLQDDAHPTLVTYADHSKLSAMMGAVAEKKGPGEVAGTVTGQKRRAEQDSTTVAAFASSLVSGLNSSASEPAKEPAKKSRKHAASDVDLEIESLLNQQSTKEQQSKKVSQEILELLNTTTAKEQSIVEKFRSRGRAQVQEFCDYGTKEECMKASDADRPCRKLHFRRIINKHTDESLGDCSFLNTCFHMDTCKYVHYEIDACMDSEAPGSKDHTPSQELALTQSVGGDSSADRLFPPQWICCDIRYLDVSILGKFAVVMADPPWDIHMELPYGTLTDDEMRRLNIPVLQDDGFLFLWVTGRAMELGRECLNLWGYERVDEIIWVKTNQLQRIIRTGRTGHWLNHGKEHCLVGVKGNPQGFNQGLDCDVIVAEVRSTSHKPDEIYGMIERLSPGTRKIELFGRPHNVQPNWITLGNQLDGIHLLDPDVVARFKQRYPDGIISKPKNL
UniProt Q14566: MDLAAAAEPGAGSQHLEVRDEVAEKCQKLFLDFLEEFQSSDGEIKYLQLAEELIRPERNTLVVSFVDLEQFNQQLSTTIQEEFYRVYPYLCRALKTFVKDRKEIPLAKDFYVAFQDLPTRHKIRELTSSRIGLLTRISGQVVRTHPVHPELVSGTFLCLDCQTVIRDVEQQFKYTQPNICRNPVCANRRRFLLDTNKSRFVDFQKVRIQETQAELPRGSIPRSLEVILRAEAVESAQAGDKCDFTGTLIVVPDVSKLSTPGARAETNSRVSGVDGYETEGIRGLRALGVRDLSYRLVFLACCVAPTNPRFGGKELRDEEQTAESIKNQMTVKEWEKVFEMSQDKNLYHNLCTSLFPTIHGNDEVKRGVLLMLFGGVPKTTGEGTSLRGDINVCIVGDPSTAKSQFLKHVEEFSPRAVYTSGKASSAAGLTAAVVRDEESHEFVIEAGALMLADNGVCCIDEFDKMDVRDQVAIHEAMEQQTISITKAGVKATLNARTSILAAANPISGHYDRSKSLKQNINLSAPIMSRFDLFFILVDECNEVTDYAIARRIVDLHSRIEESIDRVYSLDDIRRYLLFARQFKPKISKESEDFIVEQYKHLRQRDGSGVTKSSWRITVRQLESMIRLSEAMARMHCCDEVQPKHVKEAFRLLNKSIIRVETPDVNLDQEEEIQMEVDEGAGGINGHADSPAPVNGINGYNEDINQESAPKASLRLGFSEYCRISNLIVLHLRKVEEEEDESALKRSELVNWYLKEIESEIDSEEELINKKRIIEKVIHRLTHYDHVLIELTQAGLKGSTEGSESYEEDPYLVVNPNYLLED
UniProt Q7L2J0: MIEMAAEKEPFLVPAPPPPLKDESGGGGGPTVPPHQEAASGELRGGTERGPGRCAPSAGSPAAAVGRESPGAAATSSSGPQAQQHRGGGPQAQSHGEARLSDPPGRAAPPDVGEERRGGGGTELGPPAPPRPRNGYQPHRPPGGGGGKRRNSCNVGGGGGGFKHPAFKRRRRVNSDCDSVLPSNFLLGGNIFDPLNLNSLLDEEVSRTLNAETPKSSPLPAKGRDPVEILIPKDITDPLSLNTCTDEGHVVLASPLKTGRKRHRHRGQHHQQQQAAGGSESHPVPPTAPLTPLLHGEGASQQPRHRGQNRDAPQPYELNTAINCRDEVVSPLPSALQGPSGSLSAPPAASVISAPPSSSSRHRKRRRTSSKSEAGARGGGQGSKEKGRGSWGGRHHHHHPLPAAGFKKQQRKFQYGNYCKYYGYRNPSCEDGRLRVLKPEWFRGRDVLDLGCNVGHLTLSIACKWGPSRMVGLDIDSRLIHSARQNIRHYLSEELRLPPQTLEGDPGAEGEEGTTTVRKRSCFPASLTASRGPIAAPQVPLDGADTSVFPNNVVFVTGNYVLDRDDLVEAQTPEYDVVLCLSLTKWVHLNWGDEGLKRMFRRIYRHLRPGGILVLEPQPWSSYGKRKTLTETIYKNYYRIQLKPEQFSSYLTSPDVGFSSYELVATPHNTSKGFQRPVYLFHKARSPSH
UniProt P50579: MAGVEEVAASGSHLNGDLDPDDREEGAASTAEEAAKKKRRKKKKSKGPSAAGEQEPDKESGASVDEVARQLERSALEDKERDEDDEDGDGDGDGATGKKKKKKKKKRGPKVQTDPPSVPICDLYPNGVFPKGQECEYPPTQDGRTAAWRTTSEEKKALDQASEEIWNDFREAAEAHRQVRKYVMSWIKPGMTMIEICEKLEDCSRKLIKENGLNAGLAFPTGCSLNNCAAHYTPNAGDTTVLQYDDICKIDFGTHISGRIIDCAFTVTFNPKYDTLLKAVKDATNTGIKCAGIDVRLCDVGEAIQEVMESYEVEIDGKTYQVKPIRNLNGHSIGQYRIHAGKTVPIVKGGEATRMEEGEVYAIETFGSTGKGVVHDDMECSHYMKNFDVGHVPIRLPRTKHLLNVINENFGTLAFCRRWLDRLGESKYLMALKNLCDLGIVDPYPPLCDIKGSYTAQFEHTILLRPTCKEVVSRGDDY
UniProt P23368: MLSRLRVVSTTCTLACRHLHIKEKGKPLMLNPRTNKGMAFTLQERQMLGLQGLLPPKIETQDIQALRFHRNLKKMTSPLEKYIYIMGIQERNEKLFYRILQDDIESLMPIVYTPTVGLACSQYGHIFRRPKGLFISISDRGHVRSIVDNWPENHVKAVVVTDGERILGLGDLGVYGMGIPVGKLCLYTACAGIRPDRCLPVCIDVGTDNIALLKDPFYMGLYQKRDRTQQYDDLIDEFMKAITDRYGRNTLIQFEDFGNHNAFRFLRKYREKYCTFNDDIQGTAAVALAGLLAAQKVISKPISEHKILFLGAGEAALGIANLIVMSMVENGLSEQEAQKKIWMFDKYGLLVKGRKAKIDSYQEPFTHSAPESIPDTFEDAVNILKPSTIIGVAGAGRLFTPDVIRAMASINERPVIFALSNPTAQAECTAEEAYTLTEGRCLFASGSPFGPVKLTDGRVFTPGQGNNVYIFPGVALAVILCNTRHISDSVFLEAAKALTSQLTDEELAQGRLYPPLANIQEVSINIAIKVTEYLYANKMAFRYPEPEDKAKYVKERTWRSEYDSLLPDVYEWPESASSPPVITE
UniProt Q8N6R0: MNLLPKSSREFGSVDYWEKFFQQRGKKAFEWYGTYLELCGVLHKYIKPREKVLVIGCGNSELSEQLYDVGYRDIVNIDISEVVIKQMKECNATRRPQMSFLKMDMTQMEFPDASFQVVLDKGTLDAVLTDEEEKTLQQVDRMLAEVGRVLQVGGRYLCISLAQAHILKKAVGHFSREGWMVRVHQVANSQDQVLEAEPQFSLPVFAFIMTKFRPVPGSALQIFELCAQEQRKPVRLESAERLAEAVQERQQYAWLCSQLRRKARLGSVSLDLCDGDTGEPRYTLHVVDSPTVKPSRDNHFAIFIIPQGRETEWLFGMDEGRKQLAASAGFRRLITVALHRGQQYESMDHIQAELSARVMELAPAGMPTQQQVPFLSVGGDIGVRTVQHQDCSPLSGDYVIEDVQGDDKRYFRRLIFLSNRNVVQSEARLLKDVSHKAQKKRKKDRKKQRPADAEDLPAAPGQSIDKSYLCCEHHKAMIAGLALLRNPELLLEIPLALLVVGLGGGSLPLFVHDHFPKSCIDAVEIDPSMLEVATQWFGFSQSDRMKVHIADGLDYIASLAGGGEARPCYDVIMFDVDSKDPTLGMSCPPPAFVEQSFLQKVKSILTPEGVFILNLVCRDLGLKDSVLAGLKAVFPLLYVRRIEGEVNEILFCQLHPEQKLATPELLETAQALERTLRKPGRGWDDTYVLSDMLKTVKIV
UniProt Q8NE86: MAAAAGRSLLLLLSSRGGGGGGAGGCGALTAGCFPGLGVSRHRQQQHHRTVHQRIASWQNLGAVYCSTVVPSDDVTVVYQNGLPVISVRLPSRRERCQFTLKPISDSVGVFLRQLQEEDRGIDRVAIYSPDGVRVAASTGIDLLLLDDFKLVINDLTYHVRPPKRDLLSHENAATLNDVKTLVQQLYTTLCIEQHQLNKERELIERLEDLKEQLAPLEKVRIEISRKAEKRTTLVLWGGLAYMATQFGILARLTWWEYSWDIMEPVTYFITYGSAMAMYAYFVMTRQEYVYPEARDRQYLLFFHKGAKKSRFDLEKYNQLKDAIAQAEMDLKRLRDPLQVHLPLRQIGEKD
UniProt Q9ULC4: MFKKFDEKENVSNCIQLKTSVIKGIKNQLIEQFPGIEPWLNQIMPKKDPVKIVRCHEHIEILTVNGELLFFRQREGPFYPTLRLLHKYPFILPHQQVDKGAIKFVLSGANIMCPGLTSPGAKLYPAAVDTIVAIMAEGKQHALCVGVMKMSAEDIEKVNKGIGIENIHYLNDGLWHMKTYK
UniProt Q6P2C8: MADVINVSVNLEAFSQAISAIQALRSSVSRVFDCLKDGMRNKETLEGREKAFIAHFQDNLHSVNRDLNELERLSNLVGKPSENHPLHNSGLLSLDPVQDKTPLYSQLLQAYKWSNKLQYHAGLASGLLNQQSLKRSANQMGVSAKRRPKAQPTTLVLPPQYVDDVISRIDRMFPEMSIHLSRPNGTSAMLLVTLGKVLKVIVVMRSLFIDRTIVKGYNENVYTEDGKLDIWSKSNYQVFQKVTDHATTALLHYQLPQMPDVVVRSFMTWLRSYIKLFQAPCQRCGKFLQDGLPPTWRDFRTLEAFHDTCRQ
UniProt Q15648, whole entry, looked up: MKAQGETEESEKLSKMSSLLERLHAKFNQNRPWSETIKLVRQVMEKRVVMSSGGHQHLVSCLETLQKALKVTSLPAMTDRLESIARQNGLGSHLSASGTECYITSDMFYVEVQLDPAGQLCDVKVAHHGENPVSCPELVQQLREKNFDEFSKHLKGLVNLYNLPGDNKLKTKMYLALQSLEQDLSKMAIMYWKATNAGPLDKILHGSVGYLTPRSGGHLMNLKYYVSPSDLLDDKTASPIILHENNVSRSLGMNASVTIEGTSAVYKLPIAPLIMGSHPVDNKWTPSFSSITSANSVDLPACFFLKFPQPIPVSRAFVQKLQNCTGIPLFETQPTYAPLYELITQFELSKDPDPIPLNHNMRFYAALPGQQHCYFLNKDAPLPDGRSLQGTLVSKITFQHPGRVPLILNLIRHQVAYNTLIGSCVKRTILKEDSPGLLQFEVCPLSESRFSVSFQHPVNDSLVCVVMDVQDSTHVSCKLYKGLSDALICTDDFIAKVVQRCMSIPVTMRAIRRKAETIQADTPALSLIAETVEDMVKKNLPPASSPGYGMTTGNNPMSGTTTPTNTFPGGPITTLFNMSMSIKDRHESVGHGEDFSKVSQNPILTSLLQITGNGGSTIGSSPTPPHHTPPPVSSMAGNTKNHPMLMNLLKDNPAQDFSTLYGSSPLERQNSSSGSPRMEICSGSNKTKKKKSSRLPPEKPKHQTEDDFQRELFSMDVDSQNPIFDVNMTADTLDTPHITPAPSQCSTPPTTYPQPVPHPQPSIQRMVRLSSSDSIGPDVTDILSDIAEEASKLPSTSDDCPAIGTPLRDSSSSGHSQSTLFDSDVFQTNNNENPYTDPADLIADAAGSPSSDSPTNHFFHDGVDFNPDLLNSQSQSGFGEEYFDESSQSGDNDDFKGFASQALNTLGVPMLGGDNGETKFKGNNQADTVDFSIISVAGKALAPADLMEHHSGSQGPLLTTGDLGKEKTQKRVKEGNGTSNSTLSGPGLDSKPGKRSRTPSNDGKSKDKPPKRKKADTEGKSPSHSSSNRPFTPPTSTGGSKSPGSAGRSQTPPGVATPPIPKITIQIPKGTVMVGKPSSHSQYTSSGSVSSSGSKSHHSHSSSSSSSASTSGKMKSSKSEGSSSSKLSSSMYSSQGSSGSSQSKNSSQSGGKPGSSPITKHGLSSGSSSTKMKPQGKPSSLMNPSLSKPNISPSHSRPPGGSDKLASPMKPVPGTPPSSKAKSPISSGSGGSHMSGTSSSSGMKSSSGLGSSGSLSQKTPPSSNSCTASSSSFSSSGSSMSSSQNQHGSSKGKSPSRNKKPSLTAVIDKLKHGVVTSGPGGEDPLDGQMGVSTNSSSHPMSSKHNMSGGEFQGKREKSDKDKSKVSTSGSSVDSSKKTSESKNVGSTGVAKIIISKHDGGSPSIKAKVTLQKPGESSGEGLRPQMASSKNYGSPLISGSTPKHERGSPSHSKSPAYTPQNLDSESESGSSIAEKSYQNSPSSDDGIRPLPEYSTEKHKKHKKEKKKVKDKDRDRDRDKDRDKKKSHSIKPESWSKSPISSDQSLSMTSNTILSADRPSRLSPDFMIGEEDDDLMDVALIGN

Compound: Cc1cc(ccc1-c1ccccc1)C(=O)N1CCCN(CC1)C(=O)CCl [compound 10]
Experiment: probe-labelled cysteine peptide fold change vs DMSO (competition) (log2 fold change); higher = less target engagement (more negative = stronger competition)
Conditions: THP-1, incubation time: 4 h
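Note: competitive profiling in live THP-1 cells: cysteine peptides tagged with an iodoacetamide desthiobiotin (IA-DTB) probe, intensity after compound treatment relative to DMSO-treated cells.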

Target | probe-labelled cysteine peptide fold change (10 µM) | probe-labelled cysteine peptide fold change (50 µM)
MED6_O75586_137_VLTAVHGIQSAFDEAMSYCR (UniProt O75586) | 0.0128 | 0.127
METTL3_Q86U44_500_GNPQGFNQGLDCDVIVAEVR (UniProt Q86U44) | 0.0318 | -0.1
MCCC2_Q9HCC0_391_KGTHFVQLCCQR (UniProt Q9HCC0) | -0.144 | -0.214
MCM6_Q14566_302_LVFLACCVAPTNPR (UniProt Q14566) | -0.216 | -0.355
MCM6_Q14566_636_MHCCDEVQPK (UniProt Q14566) | 0.0478 | -0.487
MDH2_P40926_275_EGVVECSFVK (UniProt P40926) | 0.0695 | 0.0885
MCM6_Q14566_301_LVFLACCVAPTNPR (UniProt Q14566) | 0.023 | -0.438
MCM6_Q14566_637_MHCCDEVQPK (UniProt Q14566) | -0.06 | -0.544
MEPCE_Q7L2J0_463_GRDVLDLGCNVGHLTLSIACK (UniProt Q7L2J0) | 0.00412 | -0.0585
MED14_O60244_729_TWVAELVFANCPLNGTSTR (UniProt O60244) | -0.0181 | -0.242
METAP2_P50579_135_GQECEYPPTQDGR (UniProt P50579) | -0.455 | -0.196
METAP2_P50579_197_PGMTMIEICEK (UniProt P50579) | -0.0258 | 0.0239
MCM3_P25205_123_TLTSCFLSCVVCVEGIVTK (UniProt P25205) | -0.231 | -0.839
MEPCE_Q7L2J0_452+463_GRDVLDLGCNVGHLTLSIACK (UniProt Q7L2J0) | -0.0644 | 0.185
MEFV_O15553_332_DSCSFPEAVSGHPQASGSR (UniProt O15553) | -0.273 | -0.12
ME2_P23368_190_LCLYTACAGIRPDR (UniProt P23368) | 0.0869 | 0.103
MEFV_O15553_375_KSPGSLSPQPLPQCK (UniProt O15553) | -0.229 | -1.2
MCM2_P49736_315_TSGVVTSCTGVLPQLSMVK (UniProt P49736) | -0.0956 | 0.246
MCM6_Q14566_158+161_THPVHPELVSGTFLCLDCQTVIR (UniProt Q14566) | -0.0458 | -0.416
METTL13_Q8N6R0_652_RIEGEVNEILFCQLHPEQK (UniProt Q8N6R0) | 0.157 | 0.197
MED13L_Q71F56_1457_LGQHKPICK (UniProt Q71F56) | -0.206 | -0.589

Target | probe-labelled cysteine peptide fold change (10 µM) | probe-labelled cysteine peptide fold change (50 µM)
MDN1_Q9NU22_4604_HLFFSQSCSLLVR (UniProt Q9NU22) | -0.00746 | 0.194
MEMO1_Q9Y316_58_AIIAPHAGYTYCGSCAAHAYK (UniProt Q9Y316) | 0.0808 | 0.0468
MCU_Q8NE86_191_TLVQQLYTTLCIEQHQLNK (UniProt Q8NE86) | 0.0411 | -0.0406
METAP1_P53582_36+40_LGIQGSYFCSQECFK (UniProt P53582) | -0.0731 | -0.313
MED6_O75586_45_TCNNEVVK (UniProt O75586) | -0.15 | 0.031
MCTS1_Q9ULC4_113_FVLSGANIMCPGLTSPGAK (UniProt Q9ULC4) | 0.0993 | 0.0141
MCTS1_Q9ULC4_14_ENVSNCIQLK (UniProt Q9ULC4) | 0.0295 | -0.216
METTL14_Q9HCE5_120_GTQSLNPHNDYCQHFVDTGHRPQNFIR (UniProt Q9HCE5) | 0.0798 | 0.361
MCM6_Q14566_180_YTQPNICR (UniProt Q14566) | 0.0225 | -0.245
MCCC2_Q9HCC0_267_AATGEEVSAEDLGGADLHCRK (UniProt Q9HCC0) | -0.591 | -1.49
MCM5_P33992_207_CPLDPYFIMPDK (UniProt P33992) | -0.0843 | -0.451
MCMBP_Q9BTE3_3_PCGEDWLSHPLGIVQGFFAQNGVNPDWEK (UniProt Q9BTE3) | -0.562 | -0.982
MCM4_P33991_309_TSQLIPEMQEAFFQCQVCAHTTR (UniProt P33991) | 0.209 | -0.125
MCM6_Q14566_158_THPVHPELVSGTFLCLDCQTVIR (UniProt Q14566) | 0.197 | 0.012
METAP1_P53582_255_KLVQTTYECLMQAIDAVK (UniProt P53582) | 0.0609 | -0.253
MDN1_Q9NU22_1105_TSLIQWLAAATGNHCVR (UniProt Q9NU22) | -0.0864 | 0.854
MED14_O60244_635_AGEMCAFNK (UniProt O60244) | -0.251 | -0.315
MELTF_P08582_476_SCHAGFGSPAGWDVPVGALIQR (UniProt P08582) | 0.0498 | -0.186
MFSD14A_Q96MC6_465_HCGSHSHPHNTQAPGEAK (UniProt Q96MC6) | -0.39 | -1.11
MFSD5_Q6N075_390_VPLHSLACLGLLVLHDSDRK (UniProt Q6N075) | 0.152 | 0.235
MEPCE_Q7L2J0_419_FQYGNYCK (UniProt Q7L2J0) | -0.364 | 0.281

Target | probe-labelled cysteine peptide fold change (10 µM) | probe-labelled cysteine peptide fold change (50 µM)
MEN1_O00255_334_TYYRDEHIYPYMYLAGYHCR (UniProt O00255) | -0.045 | -0.0265
ME2_P23368_198_CLPVCIDVGTDNIALLK (UniProt P23368) | 0.307 | 0.242
MEFV_O15553_315+327_CHAQEGDPVDGTCVR (UniProt O15553) | -0.668 | -0.706
MGAT2_Q10469_386_KTCRPSTQSAQIESLLNNNK (UniProt Q10469) | -0.194 | -0.657
MCMBP_Q9BTE3_396_FTVNLSGCPR (UniProt Q9BTE3) | 0.0768 | -0.00862
MGST1_P10620_50_VFANPEDCVAFGK (UniProt P10620) | -0.312 | 0.269
METTL5_Q9NRN9_110_NAEEFELTNIDMVQCDVCLLSNR (UniProt Q9NRN9) | 0.33 | 0.0243
MEFV_O15553_315_CHAQEGDPVDGTCVR (UniProt O15553) | -0.33 | 0.163
MCCC2_Q9HCC0_391+392_KGTHFVQLCCQR (UniProt Q9HCC0) | 0.121 | 0.191
MCMBP_Q9BTE3_249_VYEDWDCFK (UniProt Q9BTE3) | -0.042 | -0.0294
METTL3_Q86U44_483_EHCLVGVK (UniProt Q86U44) | 0.0347 | -0.115
ME2_P23368_202_CLPVCIDVGTDNIALLK (UniProt P23368) | 0.0494 | -0.0254
MED14_O60244_779_LYECVLEFAR (UniProt O60244) | 0.057 | 0.184
MED27_Q6P2C8_309_TLEAFHDTCR (UniProt Q6P2C8) | 0.00649 | 0.266
MCM5_P33992_249_HMQLYCDR (UniProt P33992) | 0.112 | -0.0978
MCM2_P49736_661_FDILCVVR (UniProt P49736) | 0.242 | 0.398
MFSD2A_Q8NA29_531_ALQALRDEASSSGCSETDSTELASIL (UniProt Q8NA29) | -0.0148 | 0.377
MEFV_O15553_355_CQDSHER (UniProt O15553) | -0.0387 | -0.245
ME3_Q16798_145_FMPIVYTPTVGLACQHYGLTFR (UniProt Q16798) | -0.00527 | 0.758
MDN1_Q9NU22_3263_EELHQLQCEWK (UniProt Q9NU22) | -0.052 | 0.234
MGA_Q8IWI9_355_QEISECLIASSFEDDSR (UniProt Q8IWI9) | 0.127 | -0.409

Target | probe-labelled cysteine peptide fold change (10 µM) | probe-labelled cysteine peptide fold change (50 µM)
MED1_Q15648_135_VAHHGENPVSCPELVQQLR (UniProt Q15648) | -0.0375 | -0.395
MED23_Q9ULK4_284_DMVCNMLGLNK (UniProt Q9ULK4) | 0.0951 | -0.279
MCM6_Q14566_242_CDFTGTLIVVPDVSK (UniProt Q14566) | 0.12 | 0.175
METAP1_P53582_194+202_SCCTSVNEVICHGIPDR (UniProt P53582) | 0.352 | -0.121
METTL13_Q8N6R0_652_IEGEVNEILFCQLHPEQK (UniProt Q8N6R0) | 0.154 | -0.0266
METAP1_P53582_255_KLVQTTYECLMQAIDAVKPGVR (UniProt P53582) | -0.112 | -0.522
MCM5_P33992_482_CSVLAAANSVFGR (UniProt P33992) | -0.00634 | -0.017
MGRN1_O60291_528_AASIENVLQDSSPEHCGR (UniProt O60291) | -0.518 | -0.552
MED27_Q6P2C8_34_VFDCLK (UniProt Q6P2C8) | 0.126 | -0.134
METTL2B_Q6P1Q9_233_CFAFVHDLCDEEK (UniProt Q6P1Q9) | 0.27 | 0.0339
METAP1_P53582_255_LVQTTYECLMQAIDAVKPGVR (UniProt P53582) | 0.0796 | 0.0231
METAP1_P53582_174_EVLDVAAGMIKPGVTTEEIDHAVHLACIAR (UniProt P53582) | 0.0239 | -0.428
MED13_Q9UHV7_681_NQCLSAIASDAEQEPK (UniProt Q9UHV7) | 0.327 | 0.0925
METTL13_Q8N6R0_90_ECNATR (UniProt Q8N6R0) | 0.0609 | -0.191
METAP1_P53582_255_LVQTTYECLMQAIDAVK (UniProt P53582) | 0.366 | 0.305
METTL13_Q8N6R0_617_SILTPEGVFILNLVCR (UniProt Q8N6R0) | 0.233 | 0.364
MED24_O75448_336_DFTEDVNCAFEFLLK (UniProt O75448) | -0.0117 | -0.0218
MEN1_O00255_414_EAASLLEAGEERPGEQSQGTQSQGSALQDPECFAHLLR (UniProt O00255) | 0.305 | 0.393
MECP2_P51608_429_GGSLESDGCPKEPAK (UniProt P51608) | -0.313 | -0.87
METTL18_O95568_196_VLDLGCGSGLLGITAFK (UniProt O95568) | 0.0108 | 0.194
MED1_Q15648_373_FYAALPGQQHCYFLNK (UniProt Q15648) | 0.221 | 0.249

Part of the list above, as comma-separated lines.
Target,probe-labelled cysteine peptide fold change (10 µM),probe-labelled cysteine peptide fold change (50 µM)
METAP1_P53582_36+40_LGIQGSYFCSQECFK (UniProt P53582),-0.0731,-0.313
MCTS1_Q9ULC4_113_FVLSGANIMCPGLTSPGAK (UniProt Q9ULC4),0.0993,0.0141
MCM6_Q14566_180_YTQPNICR (UniProt Q14566),0.0225,-0.245
MEN1_O00255_414_EAASLLEAGEERPGEQSQGTQSQGSALQDPECFAHLLR (UniProt O00255),0.305,0.393
